# Library screen at single concentrations

Chains of the proteins cited; added tags and fusions are not shown. Residues count along the entry.
UniProt Q8IDJ8, 1-583: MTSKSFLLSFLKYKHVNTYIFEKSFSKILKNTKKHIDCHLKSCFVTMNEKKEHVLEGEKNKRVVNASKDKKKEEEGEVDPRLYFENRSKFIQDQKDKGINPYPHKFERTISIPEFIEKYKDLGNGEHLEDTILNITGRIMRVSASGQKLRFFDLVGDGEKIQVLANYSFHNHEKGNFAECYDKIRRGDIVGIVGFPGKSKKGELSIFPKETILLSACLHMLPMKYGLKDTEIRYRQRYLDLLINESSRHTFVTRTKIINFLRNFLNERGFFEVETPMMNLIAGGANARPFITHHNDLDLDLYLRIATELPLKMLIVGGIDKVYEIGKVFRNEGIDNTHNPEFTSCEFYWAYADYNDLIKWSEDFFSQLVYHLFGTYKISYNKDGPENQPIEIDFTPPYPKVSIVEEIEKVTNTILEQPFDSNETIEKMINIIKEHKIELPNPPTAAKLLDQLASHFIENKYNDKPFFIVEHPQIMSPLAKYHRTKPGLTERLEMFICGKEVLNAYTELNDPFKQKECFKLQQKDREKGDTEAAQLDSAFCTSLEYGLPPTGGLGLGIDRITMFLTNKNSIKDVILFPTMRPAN
UniProt I6X8D2, whole entry: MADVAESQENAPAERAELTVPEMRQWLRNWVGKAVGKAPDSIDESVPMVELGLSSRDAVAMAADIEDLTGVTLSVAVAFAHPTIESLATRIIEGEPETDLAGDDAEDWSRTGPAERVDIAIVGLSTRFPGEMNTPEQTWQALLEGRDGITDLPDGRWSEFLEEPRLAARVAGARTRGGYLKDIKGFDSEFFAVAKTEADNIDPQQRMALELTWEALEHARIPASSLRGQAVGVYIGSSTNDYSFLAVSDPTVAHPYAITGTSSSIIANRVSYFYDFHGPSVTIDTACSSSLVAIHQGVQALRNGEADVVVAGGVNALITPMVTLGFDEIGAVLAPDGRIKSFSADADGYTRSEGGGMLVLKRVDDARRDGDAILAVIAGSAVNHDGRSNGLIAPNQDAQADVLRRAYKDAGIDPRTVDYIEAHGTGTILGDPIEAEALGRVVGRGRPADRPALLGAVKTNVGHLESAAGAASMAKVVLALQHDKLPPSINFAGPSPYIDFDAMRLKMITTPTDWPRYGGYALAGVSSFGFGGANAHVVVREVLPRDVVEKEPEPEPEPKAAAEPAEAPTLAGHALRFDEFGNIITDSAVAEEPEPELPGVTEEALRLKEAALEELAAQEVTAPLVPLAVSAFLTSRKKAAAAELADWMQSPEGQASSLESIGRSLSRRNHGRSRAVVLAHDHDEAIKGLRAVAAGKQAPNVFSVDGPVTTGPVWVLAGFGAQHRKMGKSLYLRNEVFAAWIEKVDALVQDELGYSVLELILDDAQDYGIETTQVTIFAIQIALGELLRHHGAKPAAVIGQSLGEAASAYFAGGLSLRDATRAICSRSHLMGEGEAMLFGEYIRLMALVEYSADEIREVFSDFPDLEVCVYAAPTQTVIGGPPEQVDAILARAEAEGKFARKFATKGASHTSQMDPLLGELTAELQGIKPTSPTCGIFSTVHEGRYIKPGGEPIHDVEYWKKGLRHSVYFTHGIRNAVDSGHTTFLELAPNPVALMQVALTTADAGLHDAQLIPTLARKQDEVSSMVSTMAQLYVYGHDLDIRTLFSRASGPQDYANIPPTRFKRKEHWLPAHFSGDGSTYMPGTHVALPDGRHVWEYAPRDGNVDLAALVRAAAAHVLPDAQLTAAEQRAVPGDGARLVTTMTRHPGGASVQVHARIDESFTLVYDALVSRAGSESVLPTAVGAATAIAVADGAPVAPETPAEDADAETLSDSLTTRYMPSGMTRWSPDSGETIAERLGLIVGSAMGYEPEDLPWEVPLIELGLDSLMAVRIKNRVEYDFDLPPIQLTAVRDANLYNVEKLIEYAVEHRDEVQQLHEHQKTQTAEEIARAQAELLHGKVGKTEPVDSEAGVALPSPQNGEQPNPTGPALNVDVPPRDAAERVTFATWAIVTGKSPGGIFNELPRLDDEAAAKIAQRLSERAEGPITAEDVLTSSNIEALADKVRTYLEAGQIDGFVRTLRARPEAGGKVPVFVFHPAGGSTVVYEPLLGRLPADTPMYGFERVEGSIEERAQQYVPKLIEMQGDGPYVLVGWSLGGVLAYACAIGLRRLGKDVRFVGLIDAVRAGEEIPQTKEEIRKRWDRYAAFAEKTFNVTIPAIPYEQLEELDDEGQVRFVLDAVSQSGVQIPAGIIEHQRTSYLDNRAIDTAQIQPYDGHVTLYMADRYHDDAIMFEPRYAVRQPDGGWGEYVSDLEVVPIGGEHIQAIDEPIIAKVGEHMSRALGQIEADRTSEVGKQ
UniProt P9WPC5, whole entry: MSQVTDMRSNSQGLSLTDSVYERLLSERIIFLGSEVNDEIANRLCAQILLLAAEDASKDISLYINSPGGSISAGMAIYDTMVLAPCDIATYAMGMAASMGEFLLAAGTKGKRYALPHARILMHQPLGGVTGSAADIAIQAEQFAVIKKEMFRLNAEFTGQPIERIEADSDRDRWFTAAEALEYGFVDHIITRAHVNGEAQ
UniProt P9WPC3, whole entry partner: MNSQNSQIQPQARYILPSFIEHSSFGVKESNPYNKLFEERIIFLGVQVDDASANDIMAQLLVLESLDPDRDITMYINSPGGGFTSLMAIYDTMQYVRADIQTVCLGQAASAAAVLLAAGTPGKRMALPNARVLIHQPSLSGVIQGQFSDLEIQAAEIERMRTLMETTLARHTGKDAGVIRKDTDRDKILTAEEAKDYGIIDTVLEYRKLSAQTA

From ChEMBL document CHEMBL3988442, “University of Dundee, Small-Polar-MMV Screening Library” (2021).

Results are given as percent effect. How 0% and 100% were set is not recorded. Most values in the screen are low, and negative values occur. The compounds are a random part of those screened.

PfKRS1: 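Lysine-tRNA ligase, Plasmodium falciparum 3D7 (UniProt Q8IDJ8). Enzyme assay of the cytosolic lysyl-tRNA synthetase in 384-well plates, read by luminescence. Concentration: 30 µM. Higher reads as stronger inhibition, judged from the few compounds that gave an IC50. Of about 69,000 compounds tested this way, about 49 (0.071%) reached 50% or more in at least one test.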
Pks13 thioesterase: 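Polyketide synthase Pks13, Mycobacterium tuberculosis (UniProt I6X8D2). Enzyme assay of the thioesterase domain of polyketide synthase 13; the read-out is not stated. Concentration: 30 µM. Higher reads as stronger inhibition (inferred from which compounds were picked for retests). About 67,000 compounds were tested under these conditions; 0.46% (about 300) showed 50% or more at least once.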
ClpP1P2: 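Protease assay of ClpP1P2, read by the AMC dye that it sets free. Target: ClpP1P2, Mycobacterium tuberculosis (UniProt P9WPC5 and UniProt P9WPC3). Compounds at 50 µM. Direction is inferred from only a few compounds that gave an IC50; most scored high, so higher reads as stronger inhibition. Most other retested compounds had strongly negative values. Size under these conditions: about 69,000 compounds, about 10 of them at 50% or above in at least one test.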

structure	PfKRS1	Pks13 thioesterase	ClpP1P2
COCCNC(=O)c1cc(S(=O)(=O)N2CCCCC2)cs1	3.156	-13.89	19.57
CCc1nn(C)c(CC)c1CNC(=O)Nc1cccc([S+](C)[O-])c1 (centres undefined)	-1.933	-8.122	0.2517
CSCC(C)C(=O)NCc1c(C)nc2cc(=O)[nH]n2c1C (centres undefined)	1.428	9.76	1.213
CC(C(=O)O)N1CCc2onc(-c3ccc(F)c(F)c3)c2C1 (centres undefined)	3.039	0.2796	-7.353
CNC(=O)CC1COCCN1C(=O)C1(c2ccc(Cl)cc2)CCC1 (centres undefined)	-3.497	-4.691	-18.88
CCN(C(=O)CN(CC(N)=O)C(C)C)C1=CCCC1	1.623	-9.394	-4.818
c1cc(CN2C[C@@H]3OCCN(CCN4CCCC4)[C@@H]3C2)ccn1	5.061	-26.55	0.3611
CC(=O)C(Cc1ccccc1)NC(=O)CSc1nncn1C (centres undefined)	13.42	-12.86	9.057
CC(=O)Nc1nc(C(=O)N2CCCC2c2noc(C(C)C)n2)cs1 (centres undefined)	0.1968	-10.98	-10.35
Cc1ccc(NC2CCN(C(=O)c3cncnc3C)CC2)nn1	0.6271	-41.79	-32.51
Cc1cc(CSCc2csc(CS(C)(=O)=O)n2)no1	6.095	12.43	-4.236
CCc1nnc(NCc2cccc(OC)c2OC)o1	1.648	-7.77	6.725
Cc1ccc(CN2CCOC3(COCCN(Cc4ccncc4)C3)C2)o1 (centres undefined)	1.481	-4.33	-2.744
Cc1cnn(CC2CCCN2C(=O)c2sccc2-n2cnnn2)c1 (centres undefined)	-0.429	-0.7063	-0.9354
C=C(C)COc1ccccc1C(=O)NCc1nc(C)cc(=O)[nH]1	6.59	5.299	2.613
CC/N=c1\nc(NCC)nc2n1C(O)(Nc1ccc(C)cc1C)CS2 (centres undefined)	4.754	-11.84	6.429
CCS(=O)(=O)NCCN1CCc2ccc(F)cc2C1C (centres undefined)	0.4861	-25.63	6.85
O=C(N1CCOCC1)[C@@]12CCO[C@@H]1CCN(CCN1CCCCC1)C2	1.504	-23.58	9.172
CCC(C)(NCC(=O)NC(C)C)c1nc(C)cs1 (centres undefined)	2.08	-60.87	-0.283
Cc1nc([C@@H]2C[C@@H]3CCN(C(=O)c4ccnnc4)C[C@H]3O2)sc1C	3.543	-7.391	-3.062
CCC(O)(CNCc1ccncc1)c1ccc(Br)cc1 (centres undefined)	2.103	-15.59	-8.336
Cc1noc(C)c1CC(=O)OCc1nc(N)c2ccccc2n1	3.051	-17.25	9.209
Cc1occc1C(=O)N1CCC2(CCC(=O)N(CC(N)=O)C2)CC1	-1.958	-3.742	-1.86
Cc1cnc(N2CCC3(CCN(Cc4csc(C)n4)C3=O)C2)nc1 (centres undefined)	2.598	-7.452	-5.917
O=C(c1cccnc1)N1CCN(c2ccc(-n3cccc3)nn2)CC1	6.637	-5.956	-11.05
COC1(CNC(=O)c2ccc(F)c(F)c2)CCSC1 (centres undefined)	-1.013	0.6955	-6.789
O=C(CNC(=O)N1CCN(c2cccc(Cl)c2)CC1)Nc1ccccn1	0.8461	-7.226	-6.199
CC(C)(C)c1ncc2c(n1)CN(C(=O)c1ccc(C#N)nc1)C2	1.76	-5.043	8.209
Cn1cc(CN2C[C@@H]3CN(Cc4ccoc4)CCO[C@@H]3C2)cn1	0.7608	-8.093	-11.57
CN(C(=O)NCc1ccsc1)C1CCN(c2ccccc2)C1=O (centres undefined)	0.9473	-20.77	-13.32
Cc1cnn(CC2CN(c3ncnc4ccccc34)CCO2)c1 (centres undefined)	2.311	-27.4	6.925
CCC1=N[C@@]2(CC[C@@H]3CN(CC4CC4)C[C@@H]32)C(=O)N1CC1CC1	-1.441	4.346	-4.918
O=C(NC1CC1)c1ccccc1NCc1cn2cccnc2n1	7.873	1.858	3.752
CCN1CCNC(=O)C12CCN(S(=O)(=O)c1ccc(OC)cc1)CC2	2.501	-28.65	-0.2996
Cc1cccnc1CN1CC[C@H](Oc2cccc(F)c2)[C@@](C)(O)C1	3.873	-1.693	-13.28
COc1cc(C)nc(N2CCN(C(=O)c3ccc[nH]3)CC2)n1	3.371	-11.63	5.783
CN1CCC(CNC(=O)c2ccc(O)nc2)c2ccccc21 (centres undefined)	3.933	-15.14	10.17
CNC(=O)CN1CC[C@H]2CN(C(=O)c3cccn3C)C[C@H]2C1	7.362	-3.842	-4.944
COc1cc(N2C[C@@H]3COC[C@@H](Cc4nc(C)no4)[C@@H]3C2)ncn1	1.982	-22.85	-1.35
OCCNc1nccc(-c2c[nH]nc2-c2cccnc2)n1	3.024	-0.4882	1.225
CC(C)n1ccnc1C1CCN(Cc2ccc(Cl)s2)CC1	1.007	-17.4	-5.036
N#Cc1ccc(C(=O)N(C2CC2)C2CC(=O)NC2=O)cc1 (centres undefined)	10.89	-41.13	-5.51
COc1cccc2c1OCC(CNC(=O)CNC(N)=O)C2 (centres undefined)	8.703	-14.92	-7.836
CCN(CC1CCOC1)C(=O)c1cc(Cl)c2c(c1)OCO2 (centres undefined)	1.191	-11.46	-7.977
COc1ccccc1CC(=O)NS(=O)(=O)c1ccc(C(N)=O)cc1	0.939	-5.653	-0.145
CC(C)c1cc(C(=O)N2CCN(CC3CC3)[C@@H]3CS(=O)(=O)C[C@@H]32)no1	6.238	-12.61	-7.921
Cc1ccc(C(CNC(=O)Nc2cn[nH]c2)N2CCOCC2)o1 (centres undefined)	-0.1761	-18.94	-47.81
O=C(NCCNc1ccc(C(F)(F)F)cn1)c1cncc(Br)c1	4.208	-4.077	-0.19
CCN1CCC12CCN(C(=O)c1cc(C)on1)C2 (centres undefined)	0.02294	-24.37	-6.519
Cc1ccccc1C1CCN(C(=O)CCNC(=O)C(C)(C)C)C1 (centres undefined)	3.744	-12.82	-5.062
COc1ccc(Cl)cc1-c1nc(N)nc(N(C)C)n1	0.6402	-6.059	0.1358
Cc1cc(C)c(CNC(=O)NCC(O)c2cccc(F)c2)c(=O)[nH]1 (centres undefined)	-2.968	-10.63	1.633
Cc1[nH]c2ccccc2c1CCNc1ncnc2c1CCNCC2	4.075	-35.54	-6.283
CCOCCNC(=O)[C@@H]1CCCN1c1nccc(Nc2ccccc2)n1	4.191	19.29	-3.366
CC(C)c1nnc2sc(CC3CN(C(C)C)CCO3)nn12 (centres undefined)	9.02	-40.52	-8.855
CN1CCC(N(Cc2ccncc2)Cc2nc3c(s2)CCCC3)CC1	12.47	-24.79	20.17
CCOCC1CN(Cc2ccco2)Cc2nccn2C1 (centres undefined)	0.8146	-5.913	-7.446
CNC(=O)CN1CCC(NC(=O)N(C)Cc2cc(C)on2)CC1	5.461	-19.11	16.21
CC(C)c1noc(C(C)N2CCN(Cc3cccc(C#N)c3)CC2)n1 (centres undefined)	-2.212	4.309	2.57
Cc1c(-c2cc(C(=O)N3CCc4ncc(Cl)cc4C3)on2)cnn1C	-0.6403	4.602	-8.409
Cc1ccccc1OCCN1CCCC1CS(N)(=O)=O (centres undefined)	4.744	10.58	-26.84
CCOc1ccc(CSC(C)c2nc(C)no2)nc1 (centres undefined)	5.99	-18.21	-0.8823
COc1ccc(C(=O)N2CC[C@H](CO)[C@H](O)C2)c(C)c1	4.379	-4.311	-14.13

Some entries from above, unchanged:

| structure | PfKRS1 | Pks13 thioesterase | ClpP1P2 |
|---|---|---|---|
| `Cc1nc([C@@H]2C[C@@H]3CCN(C(=O)c4ccnnc4)C[C@H]3O2)sc1C` | 3.543 | -7.391 | -3.062 |
| `Cc1cccnc1CN1CC[C@H](Oc2cccc(F)c2)[C@@](C)(O)C1` | 3.873 | -1.693 | -13.28 |
| `Cc1ccccc1C1CCN(C(=O)CCNC(=O)C(C)(C)C)C1` (centres undefined) | 3.744 | -12.82 | -5.062 |
| `CCN1CCC12CCN(C(=O)c1cc(C)on1)C2` (centres undefined) | 0.02294 | -24.37 | -6.519 |
| `Cc1ccc(NC2CCN(C(=O)c3cncnc3C)CC2)nn1` | 0.6271 | -41.79 | -32.51 |
| `COc1cc(N2C[C@@H]3COC[C@@H](Cc4nc(C)no4)[C@@H]3C2)ncn1` | 1.982 | -22.85 | -1.35 |
| `Cc1ccc(C(CNC(=O)Nc2cn[nH]c2)N2CCOCC2)o1` (centres undefined) | -0.1761 | -18.94 | -47.81 |